PubChem BioAssay AID504774 | Drosophila RNAi Screening Center, 2011

Screen: 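Fly genes whose loss alters survival after alkylation damage to DNA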 (primary screen)
System: Drosophila Kc167 cells
Reagent: long dsRNA against Drosophila genes, about 0.25 µg dsRNA per well
Time to read-out: about 6 days: 3 days knock-down, then 3 days with or without MMS
Treatment: methyl methanesulphonate 0.004% (w/v) for 3 days after knock-down
Detection: 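ATP-dependent luminescence as a measure of live cells in MMS-exposed wells, quantile normalised within each plate, with replicate values also given as a mean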
Direction: mean viability with MMS: higher = more surviving cells after MMS
The deposit covers about 23,000 reagents; below is a random part of those with a known target gene and a result. 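Values are quantile-normalised luminescence on an arbitrary scale; higher means more cells surviving MMS.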 Not all columns of the deposit are shown.

{"target gene": "kumpel (kin of rumpel)", "amplicon": "DRSC14883", "mean viability with MMS": 3.57e6}
{"target gene": "kumpel (kin of rumpel)", "amplicon": "DRSC16459", "mean viability with MMS": 3.46e6}
{"target gene": "kumpel (kin of rumpel)", "amplicon": "DRSC16460", "mean viability with MMS": 3.43e6}
{"target gene": "kumpel (kin of rumpel)", "amplicon": "DRSC16461", "mean viability with MMS": 3.52e6}
{"target gene": "kumpel (kin of rumpel)", "amplicon": "DRSC16462", "mean viability with MMS": 3.54e6}
{"target gene": "kumpel (kin of rumpel)", "amplicon": "DRSC16463", "mean viability with MMS": 3.66e6}
{"target gene": "Vps8 (Vacuolar protein sorting 8)", "amplicon": "DRSC09705", "mean viability with MMS": 3.45e6}
{"target gene": "tho2", "amplicon": "DRSC00646", "mean viability with MMS": 2.84e6}
{"target gene": "dpr15 (defective proboscis extension response 15)", "amplicon": "DRSC12891", "mean viability with MMS": 3.52e6}
{"target gene": "dpr15 (defective proboscis extension response 15)", "amplicon": "DRSC14187", "mean viability with MMS": 3.27e6}
{"target gene": "dpr15 (defective proboscis extension response 15)", "amplicon": "DRSC14188", "mean viability with MMS": 3.47e6}
{"target gene": "rho-5 (rhomboid-5)", "amplicon": "DRSC02847", "mean viability with MMS": 3.82e6}
{"target gene": "snf (sans fille)", "amplicon": "DRSC18835", "mean viability with MMS": 3.37e6}
{"target gene": "Ip6k (Inositol hexakisphosphate kinase)", "amplicon": "DRSC04054", "mean viability with MMS": 3.45e6}

Not a retest: 2 of the entries above.
{"target gene": "dpr15 (defective proboscis extension response 15)", "amplicon": "DRSC14187", "mean viability with MMS": 3.27e6}
{"target gene": "dpr15 (defective proboscis extension response 15)", "amplicon": "DRSC14188", "mean viability with MMS": 3.47e6}

More entries:
{"target gene": "CG5676", "amplicon": "DRSC02875", "mean viability with MMS": 3.66e6}
{"target gene": "Wnt2 (Wnt oncogene analog 2)", "amplicon": "DRSC05160", "mean viability with MMS": 3.44e6}
{"target gene": "Wnt2 (Wnt oncogene analog 2)", "amplicon": "DRSC07574", "mean viability with MMS": 3.53e6}
{"target gene": "CG6055", "amplicon": "DRSC02923", "mean viability with MMS": 3.50e6}
{"target gene": "CG3649", "amplicon": "DRSC04400", "mean viability with MMS": 3.70e6}
{"target gene": "Vha100-2 (Vacuolar H[+] ATPase 100kD subunit 2)", "amplicon": "DRSC14152", "mean viability with MMS": 3.61e6}
{"target gene": "D (Dichaete)", "amplicon": "DRSC11132", "mean viability with MMS": 3.59e6}
{"target gene": "qkr58E-3 (quaking related 58E-3)", "amplicon": "DRSC04711", "mean viability with MMS": 3.72e6}
{"target gene": "Sod1 (Superoxide dismutase 1)", "amplicon": "DRSC11286", "mean viability with MMS": 3.70e6}
{"target gene": "SP1173", "amplicon": "DRSC11277", "mean viability with MMS": 3.61e6}
